These are yes or no findings as the source states them, for the method shown. Some entries that bind do so weakly or less than the wild type. For some assays here: Where a sequence is shown, tags or fusion partners need not be part of it.
Key:
[1] = target: T1, recombinant human NRP2 Fc chimera (R&D), purified (human) (UniProt O60462); test: phage binding to NRP2-coated microtiter wells (FIG. 3A)
T1 sequence (looked up): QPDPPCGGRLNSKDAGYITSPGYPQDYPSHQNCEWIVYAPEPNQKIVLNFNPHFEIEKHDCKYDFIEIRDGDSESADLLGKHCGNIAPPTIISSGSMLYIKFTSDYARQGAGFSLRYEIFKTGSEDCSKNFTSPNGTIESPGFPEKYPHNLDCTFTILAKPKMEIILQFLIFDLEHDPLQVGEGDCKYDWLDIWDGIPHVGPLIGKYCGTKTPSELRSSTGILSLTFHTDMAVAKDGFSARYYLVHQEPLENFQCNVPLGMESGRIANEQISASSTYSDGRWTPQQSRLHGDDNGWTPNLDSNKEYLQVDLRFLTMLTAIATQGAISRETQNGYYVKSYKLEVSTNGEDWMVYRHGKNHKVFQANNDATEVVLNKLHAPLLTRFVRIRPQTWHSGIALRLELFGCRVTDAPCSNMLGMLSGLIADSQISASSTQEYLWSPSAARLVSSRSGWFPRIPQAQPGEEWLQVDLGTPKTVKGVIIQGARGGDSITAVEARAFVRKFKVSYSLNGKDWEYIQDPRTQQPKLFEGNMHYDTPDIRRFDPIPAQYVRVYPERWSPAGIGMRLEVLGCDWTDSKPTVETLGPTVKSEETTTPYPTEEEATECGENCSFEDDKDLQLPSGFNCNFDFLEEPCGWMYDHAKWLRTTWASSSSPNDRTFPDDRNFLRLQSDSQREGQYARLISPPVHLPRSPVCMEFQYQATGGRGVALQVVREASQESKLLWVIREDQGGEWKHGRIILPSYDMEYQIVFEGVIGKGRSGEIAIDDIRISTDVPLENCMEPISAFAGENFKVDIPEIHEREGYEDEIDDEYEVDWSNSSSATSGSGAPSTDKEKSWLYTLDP

[2] = target: T1, recombinant human NRP2 Fc chimera (R&D), purified (human); test: summary of the phage binding assays
[3] = target: T2, recombinant human NRP1 (R&D), purified (human, UniProt O14786-2 22-644, limits assumed); test: summary of the phage binding assays
T2 construct: Bought protein; also called purified NRP1; immobilized NRP1
T2 sequence (looked up): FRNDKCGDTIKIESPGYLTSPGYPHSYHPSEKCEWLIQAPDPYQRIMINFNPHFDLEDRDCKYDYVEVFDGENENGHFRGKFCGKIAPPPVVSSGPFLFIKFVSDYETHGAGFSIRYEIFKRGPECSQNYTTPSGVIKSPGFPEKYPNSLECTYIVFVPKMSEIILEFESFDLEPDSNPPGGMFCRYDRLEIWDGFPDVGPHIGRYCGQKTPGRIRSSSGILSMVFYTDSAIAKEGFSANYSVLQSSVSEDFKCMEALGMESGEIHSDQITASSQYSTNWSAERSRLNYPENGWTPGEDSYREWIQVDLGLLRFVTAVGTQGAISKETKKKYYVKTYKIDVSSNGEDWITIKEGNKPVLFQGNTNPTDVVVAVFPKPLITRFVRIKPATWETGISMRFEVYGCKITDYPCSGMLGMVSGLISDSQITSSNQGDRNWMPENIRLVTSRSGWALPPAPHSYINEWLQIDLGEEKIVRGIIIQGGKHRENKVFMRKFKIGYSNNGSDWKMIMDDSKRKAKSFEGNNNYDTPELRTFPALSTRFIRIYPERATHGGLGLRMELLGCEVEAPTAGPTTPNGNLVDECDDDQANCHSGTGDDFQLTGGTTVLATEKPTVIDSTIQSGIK

[4] = target: T2, recombinant human NRP1 (R&D), purified; test: phage binding to NRP1-coated microtiter wells (FIG. 2)

B1: RPARPAR phage (T7 phage displaying the prototypic CendR peptide RPARPAR) (peptide)
peptide: RPARPAR
binding [1]: binds

B2: tLyP-1 phage (T7 phage displaying CGNKRTR, truncated LyP-1) (peptide)
peptide: CGNKRTR
notes: also called CGNKRTR phage; phage tLyP-1
binding [2]: binds | binding [3]: binds | binding [4]: binds | binding [1]: binds

Reference: patent US20150259380A1 (SANFORD BURNHAM MEDICAL RESEARCH INSTITUTE, published 2015)
